Strings that start with PEPTIDE1 are HELM notation: dots part the residues, brackets hold end groups and non-standard residues.
Test: peptide synthesis
Conditions: whole synthesis, 214 nm, peak area, TFA salt

Question: Which “final HPLC purity” value does the source give for “PEPTIDE1{E.L.V.D.N.A.V.G.G.D.L.S.K.Q.M.E.E.E.A.V.R.L.F.I.E.W.L.K.N.G.G.P.S.S.G.A.P.P.P.S.[am]}$$$$V2.0” here?
Answer: 97.7%
